Whole data set: some 33,000 sequences, median “E-score (-0.5 to 0.5)” near -0.0014, cut for the highest 2% near 0.25. The list shows a part of the results.
biological target: T1, Cad1 (UniProt P24813); assay: PBM E-score (8-mer binding enrichment) (E-score (-0.5 to 0.5)); higher = stronger / more preferred TF binding; conditions: protein concentration: 100 nM; construct: GST-full length
T1 sequence: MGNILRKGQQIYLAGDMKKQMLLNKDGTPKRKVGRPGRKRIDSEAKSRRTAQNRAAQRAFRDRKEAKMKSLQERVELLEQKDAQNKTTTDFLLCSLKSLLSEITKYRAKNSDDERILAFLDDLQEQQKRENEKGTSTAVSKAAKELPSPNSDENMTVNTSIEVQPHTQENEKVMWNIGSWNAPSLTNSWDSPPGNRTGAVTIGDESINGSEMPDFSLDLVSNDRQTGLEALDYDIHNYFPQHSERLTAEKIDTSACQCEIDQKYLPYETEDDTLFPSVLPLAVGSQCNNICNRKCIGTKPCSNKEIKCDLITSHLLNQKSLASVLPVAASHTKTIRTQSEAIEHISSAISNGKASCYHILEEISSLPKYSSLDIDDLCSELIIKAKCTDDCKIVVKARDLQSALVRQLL
Summary of the method: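 PURExpress in vitro transcription/translation supplied GST-tagged yeast transcription factors, either full-length or DNA-binding domain. Applied at about 100-200 nM to universal all-10-mer Agilent arrays double-stranded by primer extension, the bound protein was detected with fluorescent anti-GST. E-scores, modified Wilcoxon-Mann-Whitney statistics, were given by the Universal PBM Analysis Suite to ungapped eight-base words pooled with their reverse complements after masliner normalisation.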

In order of falling “PBM E-score” value:
1. CTTAATAA  0.383
2. AAGACAAC  0.336
3. ATGATATG  0.29
4. TAAAAATA  0.277
5. TAACTTAA  0.259
6. CAACCGAC  0.252
7. AACGCGTG  0.247
8. ATCACCAC  0.245
9. CGAAGATA  0.238
10. ATTACAGG  0.228
11. AGAGTGTC  0.198
12. TAGTGCAA  0.197
13. AGAATTAT  0.191
14. GCCGGCAC  0.184
15. ACGGCTAA  0.165
16. ACTATAAA  0.162
17. CGCAATAA  0.159
18. CTGAACAA  0.155
19. CGGCCAGA  0.149
20. ATTTGATG  0.148
21. GGAGTGAC  0.148
22. CCTGCGCG  0.142
23. CGTATTGA  0.137
24. CTAAGCTA  0.135
25. GTCGAACA  0.133
26. GAAATAAC  0.133
27. CGTCAAAA  0.131
28. AATCGACG  0.13
29. ATTATACA  0.129
30. CGAAATCG  0.124
31. AGCACATG  0.123
32. CGCGCCCA  0.122
33. ACTTAGCG  0.121
34. ATTCGAAA  0.119
35. ACAGAACT  0.117
36. AATCTCGT  0.115
37. ACATATAA  0.115
38. GCACCTGA  0.114
39. CGCGCCGC  0.112
40. AATCTAAA  0.111
41. CCGAACGC  0.107
42. ACGTTAAC  0.102
43. GGACCGAA  0.0997
44. CTGATATC  0.0906
45. CTTAAAAA  0.0846
46. ATGACAGA  0.0846
47. TCTGCACA  0.0825
48. AACAGTGC  0.082
49. ATTGACTA  0.0806
50. ACATTCAC  0.0778
51. ACGTAACA  0.0773
52. GTCGTCAA  0.0753
53. AAATCAGG  0.0752
54. ATATGCAT  0.075
55. AGATGAGA  0.0716
56. CCGAACCG  0.0692
57. GTGCACGA  0.0687
58. AAAACGAT  0.0683
59. GAATATAC  0.067
60. AACAACAG  0.0644
61. CATCCTTA  0.064
62. ACGCTCGG  0.0614
63. AGCACACA  0.0604
64. CATAACGA  0.0579
65. CTGGTAGC  0.0507
66. ACCTTTAC  0.0425
67. ACACAGTA  0.0407
68. TATCAACA  0.0364
69. GCTGGTGA  0.0363
70. ATTTGACC  0.0357
71. AGCGACAT  0.0338
72. AAGAATGC  0.0333
73. ACCATGAC  0.0327
74. AGCGCTTG  0.0313
75. GAATGGAA  0.0297
76. CTGCACAA  0.0256
77. GCGGAAAA  0.0254
78. ACACGAGG  0.0213
79. GACTGTTA  0.0212
80. ATATGGAA  0.0209
81. ACCGGACG  0.0174
82. ACGCTCTG  0.0162
83. ACTGTATG  0.0155
84. ACTGCTCC  0.0071
85. CTGTTCCA  0.00315
86. CACCGCTC  0.00263
87. CATGGACG  0.00038
88. AACCCATT  -0.00078
89. AAACACTC  -0.00242
90. CGATTGGA  -0.00502
91. ATATCTTG  -0.00561
92. ATGAAGTA  -0.00826
93. GTATAGTA  -0.01
94. GAAATCTC  -0.0123
95. CCTAAGCG  -0.0185
96. CCTCCGAG  -0.0215
97. CGCTCCCG  -0.0235
98. GCAGTCGA  -0.0242
99. AACTACGT  -0.0242
100. CTCTTGGA  -0.0273
101. CATAGTCG  -0.0299
102. CTTAAGTC  -0.0312
103. CTGTGCCA  -0.0318
104. GATGGTCA  -0.0321
105. GTGGTAAC  -0.0342
106. ACAGCTGA  -0.0375
107. AAGGGTAA  -0.04
108. CTTAGATC  -0.0415
109. ACCCTGAT  -0.0429
110. TCGGCACA  -0.0457
111. GCAATACC  -0.0457
112. CAAGGACA  -0.0495
113. AAGGGAAC  -0.0524
114. CAACAGCG  -0.0537
115. AGTTGGTC  -0.0544
116. ACGGCCGT  -0.0548
117. CTTCGTGA  -0.0549
118. GTTAGCCA  -0.055
119. ATCATCCG  -0.0578
120. CCTCACAA  -0.0594
121. CCACCATA  -0.0653
122. CAAATCGC  -0.0674
123. AGTCGGGC  -0.0725
124. GGATCGGA  -0.0778
125. GGATGCAC  -0.0779
126. ACTTTGAA  -0.0796
127. ATAAGGGC  -0.0823
128. AGGTTCAG  -0.0895
129. GGGCACTA  -0.0902
130. ACCAACCC  -0.0921
131. ACGTCGGA  -0.093
132. CCGAGTTA  -0.0933
133. ACCCGGCT  -0.0947
134. ACAGAAAG  -0.0964
135. CACGAGTG  -0.0974
136. ATGGGTGC  -0.103
137. AACGATGG  -0.103
138. ATCTAAGA  -0.103
139. AGGCAAAC  -0.106
140. CTCAAAGA  -0.107
141. TGCAAGAA  -0.113
142. AACGCCCT  -0.119
143. GGAGCTGA  -0.127
144. GGCCGTCA  -0.128
145. AGTTCAGC  -0.137
146. AAGTCACC  -0.142
147. AAGCAGGC  -0.148
148. AAGTCTAG  -0.155
149. GGCGGTGA  -0.162
150. GAGACAAA  -0.167
151. CAGGTCCC  -0.169
152. GCAAGGAC  -0.172
153. ATGTGTGC  -0.174
154. ACGGCTAG  -0.176
155. GTCTCCCA  -0.177
156. AGGATCTC  -0.179
157. CCTTCTCG  -0.189
158. CTTGCGGA  -0.201
159. GAGGGACC  -0.204
160. GGGGCCAC  -0.205
161. CAGTAGTC  -0.207
162. CCGCCTCA  -0.208
163. CCAGAGGA  -0.228
164. AGGAGTCC  -0.242
165. CTTCCTCC  -0.248
166. ACCCTCCG  -0.296
167. CGGAGGAG  -0.31
168. CAAGGAGA  -0.324
169. CAGAGAGG  -0.329
170. AGAAGGGG  -0.333
171. GACGGCCC  -0.34
172. CCAGGGAG  -0.403
